From PubChem BioAssay AID1347076 (National Center for Advancing Translational Sciences (NCATS), 2019)
The whole screen tested about 400,000 compounds, of which about 13,000 (3.2%) were called active. The inconclusive results got no clear call from the source; some entries with a clear call stand among them for comparison. Calls follow the shape of the dose curve; as a rule, active = well fitted cell-killing curve with a large enough effect; inconclusive = small, poorly fitted or top-dose-only effect, or effect the other way; inactive = flat fitted curve, though single readings scatter. Where the call is inconclusive, the potency comes from a doubtful curve fit.

Experiment: qHTS assay for MDR1-selective chemotherapeutics: Primary screen using the drug-selected MDR subline cells KB-V1; also: nearly all actives have a fitted effect of over 60% in size
Details: KB-V1 MDR cells viability, CellTiter-Glo, 72 h; activity change, negative = cytotoxicity: at 46.1 µM (top of the series)
Outline: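 KB-V1, DMEM (no phenol red) + 10% FBS; cpd pin-transferred, titration series; 72 h, 37 degrees C; CellTiter-Glo, luminescence. Data normalized, curve-fit.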
% is scaled to controls: 0 for no effect and ±100 for the full control effect; potency is read from the fitted curve at half-maximal effect.

Structure (SMILES) | Potency | activity change, negative = cytotoxicity
Cc1ccc(C(=O)CSc2nc3ccccc3c(=O)n2N)o1 | active: 11.6 µM | 
O=C1NC(=S)SC1=Cc1ccccc1Br |  | inactive: -8.76%
CN(C)CCCOc1ccc2c(c1)Sc1ccccc1CC2=O | active: 10.3 µM | 
COc1cc(CN2CCNC(=O)C2CC(=O)NCCCN2CCOCC2)cc(OC)c1 (centres undefined) | inconclusive: 8.2 µM [rising, partial curve, poor fit] | 
CC(C)[C@H](NC(=O)c1ccccc1Cl)C(=O)Nc1ccc(S(=O)(=O)Nc2nccs2)cc1 | inconclusive: 18.4 µM [rising, single point] | 
Cc1ccc(Cl)cc1N1CCN(C(=O)Cc2ccc(-n3c(=O)[nH]c4ccsc4c3=O)cc2)CC1 |  | inactive: 0%
O=C(CCN1CCN(c2ccccc2)CC1)NNC(=O)c1cccc2ccccc12 | active: 18.4 µM | 
COc1ccc(NC(=O)COCc2cc(-c3cccs3)on2)cc1 |  | inactive: -4.87%
CN(C)c1ccnc(-n2cccc2/C=N/OCc2cccc(F)c2)c1C#N | inconclusive: 23.1 µM [cytotoxic, single point] | 
O=[N+]([O-])c1ccc2c(c1)C(=NO)c1cc(Cl)c(Cl)cc1-2 | inconclusive: 20.6 µM [cytotoxic, single point] | 
CC(C)c1ccc(NC(=S)NN2CCN(C)CC2)cc1 |  | inactive: -4.57%
COc1ccc(NC(=O)c2nc3nc(C)cc(C(F)F)n3n2)c(C)c1 | inconclusive: 29.1 µM [rising, single point] | 
Oc1ccc(-c2[nH]ncc2-c2cccc3cccnc23)c(O)c1 | inconclusive: 29.1 µM [cytotoxic, single point] | 
O=S(=O)(NC1CCCC1)c1cccc(-c2nnc(-c3ccccc3)o2)c1 | inconclusive: 5.8 µM [cytotoxic, partial curve] | 
Cn1cc(CN2CCN(c3ncccn3)CC2)c(-c2cccc(Cl)c2)n1 | inconclusive: 16.4 µM [cytotoxic, partial curve] | 
Nc1c(C(=O)NCCN2CCOCC2)c2nc3ccccc3nc2n1CCc1ccccc1 | active: 23.1 µM | 
O=C(Nc1ccccc1N1CCOCC1)c1cc2ccccc2o1 | inconclusive: 29.1 µM [cytotoxic, partial curve, poor fit] | 
COc1ccc(NC(=O)CC2C(=O)N(c3ccc(OC)cc3)C(=S)N2NC(=O)c2cccc(F)c2)cc1 (centres undefined) | inconclusive: 29.1 µM [rising, single point] | 
COc1cccc(C2=NOC(C(=O)Nc3ccc(OC)c(OC)c3)C2)c1 (centres undefined) | inconclusive: 20.6 µM [cytotoxic, single point] | 
Cc1ccc2oc3c(c(=O)c2c1)C(c1ccc(F)cc1)N(c1nc(C)c(C)s1)C3=O (centres undefined) | inconclusive: 2.31 µM [rising, full curve, poor fit] | 
Cc1ccc(C)c(NS(=O)(=O)c2cc3c(cc2Cl)NC(=O)CO3)c1 | inconclusive: 14.6 µM [cytotoxic, single point] | 
CCn1c(=O)c(C(=O)Nc2ncccc2C)c(O)c2ccccc21 | active: 4.61 µM | 
COC(=O)Cn1nc(-c2ccc(C)cc2)c2ccccc2c1=O | inconclusive: 13 µM [cytotoxic, single point] | 

Structure (SMILES) | Potency | activity change, negative = cytotoxicity
COc1cc(C(=O)NCCc2ccc(S(N)(=O)=O)cc2)ccc1OCc1c(C)noc1C |  | inactive: -2.03%
COc1ccc(CN2CCN(C(=O)c3ccc(S(=O)(=O)NCc4ccco4)cc3)CC2)cc1 | inconclusive: 3.66 µM [cytotoxic, full curve, poor fit] | 
CCON1C(=O)C2(CCCCC2)C(=O)C12C=CCCC2 (centres undefined) | inconclusive: 20.6 µM [cytotoxic, single point] | 
CCCc1c(NC(=O)Nc2ccc(Cl)cc2Cl)cnn1-c1ccccc1 | inconclusive: 18.4 µM [cytotoxic, partial curve, poor fit] | 
C/C(=N\NC(N)=S)C1(C)CCCCC1 |  | inactive: 20.7%
CCOC(=O)c1ccc(NC(=O)CC2C(=O)N(c3ccc(F)cc3)C(=O)N2Cc2ccc3c(c2)OCO3)cc1 (centres undefined) | inconclusive: 14.6 µM [cytotoxic, partial curve] | 
CC(Nc1nc(-c2cccc(Br)c2)cs1)c1nc2cc(Cl)c(N3CCCCC3)cc2n1CCOCCO (centres undefined) | inconclusive: 20.6 µM [cytotoxic, single point] | 
CC(C)(C)OC(=O)N1CCC(c2c(C(=O)NCCN3CCC(Cc4ccccc4)CC3)cnn2-c2ccccc2)CC1 | inconclusive: 29.1 µM [cytotoxic, single point] | 
COc1cccc(C2=NOC(C(=O)Nc3ccc4c(c3)OCO4)C2)c1OC (centres undefined) |  | inactive: 4.06%
O=C(c1cc(-c2ccccc2Cl)nc2ccc(Br)cc12)N1CCN(c2ccccn2)CC1 | inconclusive: 29.1 µM [cytotoxic, partial curve, poor fit] | 
O=c1c2ccccc2sn1-c1ccccc1 |  | inactive: 0%
O=C(NC(=O)c1ccccc1F)OCc1ccc(Cl)cc1Cl | inconclusive: 20.6 µM [rising, partial curve, poor fit] | 
O=S(=O)(c1ccc(Cl)cc1)N1CCN=C1SCc1cccc(Cl)c1 | active: 20.6 µM | 
Oc1cccc(/C=N/n2c(C3CCCCC3)n[nH]c2=S)c1 | inconclusive: 29.1 µM [rising, single point] | 
CCOc1ccccc1NC(=O)c1cc2ccccc2o1 | inconclusive: 32.6 µM [cytotoxic, single point] | 
Cc1ccc(S(=O)(=O)NCC2NCCc3ccccc32)cc1 (centres undefined) | inconclusive: 4.11 µM [rising, full curve, poor fit] | 
O=C(c1cccnc1)N1CCC2CC1c1c(Cl)cccc12 (centres undefined) |  | inactive: -10.8%
O=C(Nc1ccccc1-c1nc2ccccc2s1)c1cc(Cl)cc(Cl)c1 | inconclusive: 1.64 µM [rising, full curve, poor fit] | 
CC(O)(c1cccnc1)c1nc(-c2cccc(C#N)c2)cs1 (centres undefined) |  | inactive: 1.73%
COC(=O)C1CCN(C(=O)c2ccc3nccnc3c2)CC1 | inconclusive: 16.4 µM [rising, single point] | 
CCOC(=O)C(NC(=O)CC)(Nc1sc2c(c1C(=O)OC)CCN(C)C2)C(F)(F)F (centres undefined) | inconclusive: 18.4 µM [cytotoxic, partial curve, poor fit] | 
CCOC(=O)c1c(C)[nH]c(C(=O)/C(C#N)=C/c2ccc(OCC)cc2)c1C | inconclusive: 18.4 µM [cytotoxic, single point] | 
COC(=O)c1ccc(/C=C/c2ccc3cccc(OC(C)=O)c3n2)cc1 | inconclusive: 29.1 µM [cytotoxic, single point] | 

Entries from the list above that have a thiophene ring, fused or not:
Structure (SMILES) | Potency | activity change, negative = cytotoxicity
Cc1ccc(Cl)cc1N1CCN(C(=O)Cc2ccc(-n3c(=O)[nH]c4ccsc4c3=O)cc2)CC1 |  | inactive: 0%
COc1ccc(NC(=O)COCc2cc(-c3cccs3)on2)cc1 |  | inactive: -4.87%
CCOC(=O)C(NC(=O)CC)(Nc1sc2c(c1C(=O)OC)CCN(C)C2)C(F)(F)F (centres undefined) | inconclusive: 18.4 µM [cytotoxic, partial curve, poor fit] | 

For reference, some entries already given.
Structure (SMILES) | Potency | activity change, negative = cytotoxicity
O=c1c2ccccc2sn1-c1ccccc1 |  | inactive: 0%
O=C(NC(=O)c1ccccc1F)OCc1ccc(Cl)cc1Cl | inconclusive: 20.6 µM [rising, partial curve, poor fit] | 

(more compounds)

Structure (SMILES) | Potency | activity change, negative = cytotoxicity
CC1(C(=O)Nc2ccc3c(c2)OCO3)CC1(Cl)Cl (centres undefined) | inconclusive: 18.4 µM [rising, single point] | 
COCC1CCN(C(=O)c2ccc3oc(CCc4ccccc4)nc3c2)C1 (centres undefined) | inconclusive: 9.2 µM [cytotoxic, partial curve] | 
CCCCOc1ccc(C(=O)N(Cc2ccc(C(C)C)cc2)C2CCS(=O)(=O)C2)cc1 (centres undefined) | inconclusive: 29.1 µM [cytotoxic, single point] | 
COC(=O)c1scc(-c2ccccc2)c1S(=O)(=O)Nc1cccc(C)c1C | inconclusive: 9.2 µM [cytotoxic, partial curve, poor fit] | 
Cc1ccc(C)c(Nc2ccc(C(=O)NCCc3ccccc3)cn2)c1 |  | inactive: -5.93%
CCC(C)(C)NS(=O)(=O)c1cc(CN2C(=O)c3cccnc3C2=O)ccc1OC |  | inactive: -2.15%
O=C(c1ccccc1Cl)n1nc(-c2cccnc2)nc1NCc1ccc(F)cc1 |  | inactive: 1.24%
CCOc1ccc(Cl)cc1-c1cc(C(=O)Nc2cc(OC)c(OC)c(OC)c2)[nH]n1 | inconclusive: 29.1 µM [cytotoxic, single point] | 
CCCCc1n[nH]c(=S)n1Cc1ccc(Cl)cc1 | inconclusive: 29.1 µM [cytotoxic, single point] | 
Cc1cccc(OCc2nc(-c3cccnc3)no2)c1 | inconclusive: 29.1 µM [cytotoxic, single point] | 
CCC(C)NS(=O)(=O)c1ccc(S(=O)(=O)N2CCCC3(CCCCC3)C2)cc1 (centres undefined) | active: 3.66 µM | 
CNC(=O)COC(=O)/C=C/c1nc2ccccc2s1 |  | inactive: 12.9%
COc1ccccc1NC(=O)Cc1coc2cc(C)ccc12 | inconclusive: 16.4 µM [cytotoxic, partial curve] | 
Cc1cc(C)c2c(ccc3ccccc32)n1 | inconclusive: 29.1 µM [cytotoxic, single point] | 
COC(=O)c1ccc(/C=C(\C#N)C(=O)NC(C)c2ccccc2)cc1 (centres undefined) |  | inactive: -15.6%
CCCCN(C)Cc1c(C)[nH]c2ccc(OCC)cc2c1=O | inconclusive: 29.1 µM [rising, single point] | 
CCOc1ccc(NC(=O)C2CCCN(S(=O)(=O)c3cccc4nsnc34)C2)cc1 (centres undefined) | inconclusive: 2.31 µM [cytotoxic, partial curve] | 
CC(C)CNc1nnnc2c1sc1nc(N3CCOCC3)c3c(c12)CC(C)(C)SC3 | inconclusive: 23.1 µM [cytotoxic, single point] | 
O=[N+]([O-])c1cccc(-c2nnc3cccc(Cl)n23)c1 | inconclusive: 29.1 µM [rising, single point] | 
Cc1nc(SCC(=O)c2cc3ccccc3oc2=O)c(C#N)c(-c2ccccc2)c1C(=O)Nc1ccccc1 | inconclusive: 23.1 µM [cytotoxic, partial curve, poor fit] | 
COc1ccc(NS(=O)(=O)c2ccc(C(=O)Nc3c(C)n(C)n(-c4ccccc4)c3=O)cc2)cc1 |  | inactive: 0%
COc1cc2c(cc1OC)CN(Cc1ccc(OC)c(C)c1OC)CC2 | inconclusive: 9.2 µM [cytotoxic, partial curve, poor fit] | 
CC(C)c1ccc(S(=O)(=O)Nc2ccc3oc4c(c3c2)C(=O)CC(C)(C)C4)cc1 |  | inactive: -35.6%
